Test results from the supplement of paper PMC10338343.
± gives the standard deviation. Only a part is listed here, and it is no random draw. Many of these values have a large error.

Tested on: MIWI (PIWIL1) piRISC loaded with piRNA #2 (30 nt)
Experiment: pre-steady-state target cleavage rate (min^-1); MIWI and MILI are mouse PIWI proteins and EfPiwi is from a freshwater sponge; tags in brackets are library labels; higher = faster piRNA-guided slicing of the target
Conditions: guide: piRNA #2 5'p-UUAGGUAACCCAGUAGAUCCAGAGGAAUUC; auxiliary factor: 500 nM mouse GTSF1
Method in brief: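 Cleave-'n-Seq measured uncleaved targets by sequencing after a transcribed, DNA-blocked target RNA library […] was mixed with 1 nM active affinity-purified piRISC holding one synthetic guide, with or without 500 nM GTSF1 partner protein, at 33 °C in HEPES–potassium acetate buffer for 0–8 or 0–960 min. Counts were normalised to depth and to weakly complementary targets, three trials were pooled, and k3 was capped at 0.0001 min^-1. A burst-and-steady-state fit gave the pre-steady-state cleavage rate.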
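Further: 1 nM active piRISC with 0.1 nM target library at 33 °C single turnover.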

Sequence	pre-steady-state target cleavage rate
CUUAAGGAGUGGAACUACAGGGUUACCUAA	0.00168 ± 0.014
CUUAAGGAGACCUAGAACUGGGUUUCCUAA	0.000587 ± 0.011
CUUAAGGAGACGAUCUACUGGGUUAUCUAA	0.00245 ± 0.0027
CUAUUCCUCUGGAUCUACUGUGGUUACCUAA	0.0019 ± 0.0062
CUUAAGGAGACCAACUACUCGGUUACCUAA	0.000245 ± 0.014
CUUAAGGAGACCUUCUACUCGGGUUACCUAA	0.0012 ± 0.0054
CUUAAGGAGACCUAGUGCUGGGUUACCUAA	0.00112 ± 0.0076
CUUAACCUCUGGAUCUACUUGGUUACCUAA	0.00253 ± 0.0043
CUUAAGCUCUGGAUCUACUAGGGUUACCUAA	0.000549 ± 0.013
CUUAAGGAGACGAUCUACUUGGGUUACCUAA	0.00105 ± 0.0095
CUUAAGGAGUGGAUCAACUGGGUUACGUAA	0.053 ± 0.014
CUUAAGGAGAGGAUCUACUGGGAAACCUAA	0.000227 ± 0.029
CUAUUCCUCUCGAUCUACUGGGUUACCUUA	0.583 ± 0.056
CUUAAGGACUGGAUCUACUGGCGUUACCUAA	0.000346 ± 0.045
CUUAAGGACUGCAUCUACAGGGUUACCUAA	0.00634 ± 0.0076
CUUAAGGAGACGAUGUACUGGGUUACGUAA	0.000253 ± 0.024
GAAUUCCUCUGGUUCUACUGGGUUACCUAA	0.678 ± 0.042
CUUAAGGUCUGGAUCUACUUGGGUUACCUAA	0.000441 ± 0.018
CUUAAGGACUCCUUCUACUGGGUUACCUAA	0.0016 ± 0.0065
CUUAAGGAGACCUAGAUCUGAGGUUACCUAA	0.00106 ± 0.0088
CUUAAGGACUGGAACUACUGGGUAACCUAA	0.00731 ± 0.012
CUUAAGGAGACGAUCUACUGGGUAUACCUAA	0.00188 ± 0.0057
CUUAAGGACUGGAUCUACUGGGUUACCCAA	0.00749 ± 0.011
GAAUUCCUCUGGAUCUACUCGGUUACGUAA	0.155 ± 0.021

Sequence	pre-steady-state target cleavage rate
CUUAAGGAGACCUUCUACUGGGUUCCUAA	0.000306 ± 0.013
CUUAAGGAGACCAUCUACUGGGAUACGUAA	0.000871 ± 0.01
CUUAAGGACUGGUUCUACUGGGUAACCUAA	0.00666 ± 0.014
CUUAAGGAGACCUACUACUGGAGUUACCUAA	0.00374 ± 0.0042
CUUUUCCUCUGGAACUAGUGGGUUACCUAA	0.204 ± 0.025
CUUAAGGAGAGCAUCUACUGGGUUACCAAA	0.00187 ± 0.0051
CUUAAGGAGACCUACUAUUGGGUUACCUAA	0.0011 ± 0.0092
CUUAAGGAGUGGAUGUACAGGGUUACCUAA	0.00457 ± 0.0054
CUUAAGGAGAGGAUCUACUGCGAUACCUAA	0.000558 ± 0.0092
CUUAAGGAGACCUAGAUGUGGUUACCUAA	0.00102 ± 0.0055
CUUAAGGAGACCUUCUACUGGGUUACCCUAA	0.00118 ± 0.0084
GAAUACCUCUGGAUCUACUGGGUUACGUAA	0.609 ± 0.038
CUUAAGGAGACCUAGAUGUGCGUUACGUAA	0.0013 ± 0.0038
CUUAAGGAGACGAUCUACUGGGUUACCUCA	0.00102 ± 0.0064
CUUAAGGAGACCAUCUACUGGCUUACCAAA	0.00182 ± 0.0033
CUUAAGGAGACCUAGUACUGAGUUACCUAA	0.00109 ± 0.008
CUUAAGGAGACCAUCUACUGGGUGUACCUAA	0.0012 ± 0.008
CUUAAGGAGAGCAUCUACAGGGUUACCUAA	0.00205 ± 0.0053
CUUAAGGAGACCUAGUACUGGGUUUACCUAA	0.000939 ± 0.0065
CUUAAGGAGACCUAGAUCUGGGUUACCUAC [g2:g13:cont:t1C]	0.00086 ± 0.0081
CUUAAGGAGACCUACUACAUGGGUUACCUAA	0.0006 ± 0.016
CUUAACCUCUGGAUCUAGCUGGGUUACCUAA	0.000844 ± 0.0075
CUUAAGGAGACCAUCUAGCUGGGUUACCUAA	0.000786 ± 0.0094
CUUAUCCUCUGGAUCUACUGAGUUACCUAA	0.779 ± 0.05

Sequence	pre-steady-state target cleavage rate
CUUAAGGAGACCAUCUACUGGGUUACCUUA	0.00124 ± 0.0047
CUUAAGGAGACGAUCUAGUGGGUUACCAAA	0.00108 ± 0.0031
CUUAAGGACUGCUUCUACUGGGUUACCUAA	0.00105 ± 0.023
CUUAAGGAGUGGAUCUACUGGGUUAGGUAA	0.000793 ± 0.019
CUUAAGGACUGGAUCUACACCGUUACCUAA	0.00293 ± 0.0075
CUUAAGCUCUGGAUCUACUGAGGUUACCUAA	0.000383 ± 0.029
CUUAAGGAGAGGAUCUACUGGGUAUCCUAA	0.00179 ± 0.0069
CUUAAGGAGACCUAGAUCUGGGUAACCAAA	0.000198 ± 0.021
CUUAAGGAGUGGAUCUAUGGGUUACCUAA	0.000492 ± 0.016
CUUAAGGAGACGAAGUACUGGGUUACCUAA	0.000205 ± 0.02
CUUAAGGAGACCAUCUACUGGGAAUCCUAA	0.0011 ± 0.0072
CUUAAGGAGACCAUCUACUGGGUAACCAAA	0.000402 ± 0.016
CUUUUCCUCUGGAUCUACUCCCAAUGGAUA [g12:g27:cont:t1A]	0.000279 ± 0.03
CUUAAGGAGACCUAGAUGUGGAGUUACCUAA	0.00171 ± 0.0046
CUUAAGGAGACCUAGAUGAGUGUUACCUAA	0.000291 ± 0.019
CUUAAGGAGACCACCUACUGGGUUACCUAA	0.00311 ± 0.0043
CUUAAGGAGACCUUCUACUGGGUUACCAAA	0.00151 ± 0.0071
CAAUUCCUCUGGAUCUACUGGGUACCUAA	0.00238 ± 0.0047
CUUAAGGAGACCUACUACUGGGUUACGAUA	0.000251 ± 0.015
CUUAAGGAGUCGAUCUACUGGGUUACCUUA	0.000626 ± 0.014
CUUAAGGAGACCUAGAUGAGGGGUACCUAA	0.000421 ± 0.024
CUUAAGGAGACGAUCUACUGGGUUACCAA	0.00124 ± 0.0031
CUUAAGGAGACCUUCUACUGGGGUUACCUAA	0.00145 ± 0.008
CUUAAGGAGAGGAUCUACUUGGGUUACCUAA	0.00017 ± 0.031

In a second layout: results already given.
Sequence,pre-steady-state target cleavage rate
CUUAAGGAGACCAUCUACUGGGAAUCCUAA,0.0011 ± 0.0072
CUUAAGGAGACCAUCUACUGGGUAACCAAA,0.000402 ± 0.016
CUUUUCCUCUGGAUCUACUCCCAAUGGAUA [g12:g27:cont:t1A],0.000279 ± 0.03
CUUAAGGAGACCUAGAUGUGGAGUUACCUAA,0.00171 ± 0.0046
CUUAAGGAGACCUAGAUGAGUGUUACCUAA,0.000291 ± 0.019
CUUAAGGAGACCACCUACUGGGUUACCUAA,0.00311 ± 0.0043
